This is one part of the list.
Tests used:
Experiment in all cases: log2 fold change, soluble protein after heating vs DMSO (PISA); higher = thermal stabilisation; K562 cells, 10 uM, 30 min; active = over 0.2 and 3.5 SD of the protein, either way, in both replicates (recomputed)
[1] = compound: CC1=C(C=C(C=C1)NC(=O)C2=CC(=CC=C2)C(C)(C)C#N)NC3=CC4=C(C=C3)N=CN(C4=O)C
Method in brief: (§1)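 K562 cells at 2×10^6 cells/mL were exposed to 10 μM compound for 30 min, then aliquots were heated for 3 min across 48°C-58°C, pooled, and extracted in PBS containing 0.5% NP-40 at 4°C. The supernatant after 21,000xg for 90 min was taken as soluble protein and measured by TMTpro 16plex LC-MS/MS with channel sums equalised. Thermal stability is reported relative to control samples, with values from duplicates. Fold changes are given on a log2 scale.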

By UniProt entry, the sequences of proteins in these tests, tags left out. Where a name states a change or a piece, a line headed by the entry shows the natural chain unless it says otherwise.
UniProt Q9NVG8: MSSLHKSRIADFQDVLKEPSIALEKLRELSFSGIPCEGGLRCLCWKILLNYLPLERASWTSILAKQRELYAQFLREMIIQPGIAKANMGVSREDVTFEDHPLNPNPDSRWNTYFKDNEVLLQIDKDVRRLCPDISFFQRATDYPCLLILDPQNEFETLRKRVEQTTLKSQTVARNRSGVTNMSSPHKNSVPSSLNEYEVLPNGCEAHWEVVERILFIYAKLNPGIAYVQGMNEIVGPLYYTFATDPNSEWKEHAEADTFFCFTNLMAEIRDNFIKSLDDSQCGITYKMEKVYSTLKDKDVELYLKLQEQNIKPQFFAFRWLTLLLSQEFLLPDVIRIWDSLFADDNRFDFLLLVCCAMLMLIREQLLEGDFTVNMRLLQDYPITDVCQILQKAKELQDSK
UniProt Q15545, whole entry, looked up: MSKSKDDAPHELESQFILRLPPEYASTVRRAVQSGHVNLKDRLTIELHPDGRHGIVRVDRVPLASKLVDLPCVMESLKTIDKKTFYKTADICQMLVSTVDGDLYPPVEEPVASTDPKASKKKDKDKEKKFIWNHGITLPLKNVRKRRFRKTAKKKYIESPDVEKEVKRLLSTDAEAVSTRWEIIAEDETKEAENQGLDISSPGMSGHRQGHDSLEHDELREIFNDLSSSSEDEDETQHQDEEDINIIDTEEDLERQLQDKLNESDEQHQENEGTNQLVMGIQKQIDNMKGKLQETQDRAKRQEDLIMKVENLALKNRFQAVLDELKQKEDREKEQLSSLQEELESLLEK
UniProt Q9UJZ1: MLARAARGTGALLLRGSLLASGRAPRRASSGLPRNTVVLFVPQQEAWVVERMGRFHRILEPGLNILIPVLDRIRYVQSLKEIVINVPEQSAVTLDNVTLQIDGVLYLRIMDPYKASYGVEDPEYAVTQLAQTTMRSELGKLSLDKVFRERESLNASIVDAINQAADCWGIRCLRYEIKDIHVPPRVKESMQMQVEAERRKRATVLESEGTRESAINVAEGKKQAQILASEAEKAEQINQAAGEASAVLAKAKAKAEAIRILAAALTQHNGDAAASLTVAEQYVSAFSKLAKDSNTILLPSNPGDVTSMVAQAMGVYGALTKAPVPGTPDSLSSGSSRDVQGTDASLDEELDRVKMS
UniProt P16949: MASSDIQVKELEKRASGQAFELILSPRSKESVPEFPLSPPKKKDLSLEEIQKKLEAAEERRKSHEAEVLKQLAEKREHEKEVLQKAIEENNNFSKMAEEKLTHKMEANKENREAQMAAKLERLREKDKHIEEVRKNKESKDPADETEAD
UniProt Q96A49: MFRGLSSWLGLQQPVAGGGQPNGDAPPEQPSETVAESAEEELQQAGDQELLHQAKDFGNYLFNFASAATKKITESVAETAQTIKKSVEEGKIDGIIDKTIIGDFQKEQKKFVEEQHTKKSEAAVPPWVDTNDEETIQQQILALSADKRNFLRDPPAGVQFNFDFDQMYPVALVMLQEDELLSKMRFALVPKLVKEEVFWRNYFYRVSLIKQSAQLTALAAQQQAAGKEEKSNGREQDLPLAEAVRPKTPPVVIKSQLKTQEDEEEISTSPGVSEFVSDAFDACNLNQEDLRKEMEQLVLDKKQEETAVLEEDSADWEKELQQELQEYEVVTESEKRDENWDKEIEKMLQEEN
UniProt O75683: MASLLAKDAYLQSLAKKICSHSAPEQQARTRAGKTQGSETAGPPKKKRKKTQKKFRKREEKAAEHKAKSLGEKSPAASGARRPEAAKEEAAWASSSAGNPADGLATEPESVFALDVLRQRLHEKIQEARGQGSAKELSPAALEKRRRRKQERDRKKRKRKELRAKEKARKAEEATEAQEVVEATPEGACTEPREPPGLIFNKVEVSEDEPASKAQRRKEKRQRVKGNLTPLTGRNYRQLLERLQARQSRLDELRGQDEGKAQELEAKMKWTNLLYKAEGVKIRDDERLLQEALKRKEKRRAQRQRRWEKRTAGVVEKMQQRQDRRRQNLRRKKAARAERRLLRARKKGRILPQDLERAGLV
UniProt O43760: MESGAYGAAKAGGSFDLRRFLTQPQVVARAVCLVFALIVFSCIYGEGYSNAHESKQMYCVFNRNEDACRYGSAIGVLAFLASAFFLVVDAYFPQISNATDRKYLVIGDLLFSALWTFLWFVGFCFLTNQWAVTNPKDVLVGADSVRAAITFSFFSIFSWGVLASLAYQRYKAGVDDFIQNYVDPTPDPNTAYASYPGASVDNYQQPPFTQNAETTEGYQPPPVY
UniProt O60499: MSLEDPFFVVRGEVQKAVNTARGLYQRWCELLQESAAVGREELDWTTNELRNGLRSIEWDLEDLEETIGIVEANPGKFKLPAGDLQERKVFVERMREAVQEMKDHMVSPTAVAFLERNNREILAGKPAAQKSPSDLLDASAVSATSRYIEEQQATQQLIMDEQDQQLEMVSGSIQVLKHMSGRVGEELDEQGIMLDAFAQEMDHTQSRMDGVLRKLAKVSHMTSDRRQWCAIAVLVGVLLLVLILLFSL
UniProt O75410: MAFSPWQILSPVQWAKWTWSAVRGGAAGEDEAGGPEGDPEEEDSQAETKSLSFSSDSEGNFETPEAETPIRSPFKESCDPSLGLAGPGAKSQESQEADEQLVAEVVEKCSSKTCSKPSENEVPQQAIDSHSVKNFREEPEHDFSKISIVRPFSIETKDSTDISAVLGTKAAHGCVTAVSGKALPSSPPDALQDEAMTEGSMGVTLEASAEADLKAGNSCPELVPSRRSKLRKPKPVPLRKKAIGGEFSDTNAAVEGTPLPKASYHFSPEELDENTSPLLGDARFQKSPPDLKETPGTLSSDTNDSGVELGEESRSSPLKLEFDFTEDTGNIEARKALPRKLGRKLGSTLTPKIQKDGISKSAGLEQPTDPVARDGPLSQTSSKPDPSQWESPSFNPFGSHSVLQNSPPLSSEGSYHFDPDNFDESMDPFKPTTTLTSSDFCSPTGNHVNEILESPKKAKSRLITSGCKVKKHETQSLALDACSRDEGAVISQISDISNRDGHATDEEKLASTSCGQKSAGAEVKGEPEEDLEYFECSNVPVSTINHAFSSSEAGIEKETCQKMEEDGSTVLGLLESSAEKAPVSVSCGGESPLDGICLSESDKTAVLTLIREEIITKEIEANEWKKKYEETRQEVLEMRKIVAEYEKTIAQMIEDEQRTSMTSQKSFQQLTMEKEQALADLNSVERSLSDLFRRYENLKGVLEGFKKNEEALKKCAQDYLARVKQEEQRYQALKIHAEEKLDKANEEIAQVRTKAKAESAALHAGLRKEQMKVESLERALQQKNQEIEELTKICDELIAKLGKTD
UniProt P17542, whole entry, looked up: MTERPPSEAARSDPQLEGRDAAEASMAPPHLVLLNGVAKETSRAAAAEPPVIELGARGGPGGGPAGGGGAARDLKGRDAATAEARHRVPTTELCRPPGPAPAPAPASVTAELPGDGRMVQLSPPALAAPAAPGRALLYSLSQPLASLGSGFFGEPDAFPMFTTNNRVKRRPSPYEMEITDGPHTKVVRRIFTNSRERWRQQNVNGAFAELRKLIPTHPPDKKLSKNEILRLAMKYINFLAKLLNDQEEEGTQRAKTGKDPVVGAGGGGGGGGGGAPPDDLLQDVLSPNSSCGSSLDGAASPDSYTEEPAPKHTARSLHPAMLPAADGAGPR
UniProt Q5T5C0: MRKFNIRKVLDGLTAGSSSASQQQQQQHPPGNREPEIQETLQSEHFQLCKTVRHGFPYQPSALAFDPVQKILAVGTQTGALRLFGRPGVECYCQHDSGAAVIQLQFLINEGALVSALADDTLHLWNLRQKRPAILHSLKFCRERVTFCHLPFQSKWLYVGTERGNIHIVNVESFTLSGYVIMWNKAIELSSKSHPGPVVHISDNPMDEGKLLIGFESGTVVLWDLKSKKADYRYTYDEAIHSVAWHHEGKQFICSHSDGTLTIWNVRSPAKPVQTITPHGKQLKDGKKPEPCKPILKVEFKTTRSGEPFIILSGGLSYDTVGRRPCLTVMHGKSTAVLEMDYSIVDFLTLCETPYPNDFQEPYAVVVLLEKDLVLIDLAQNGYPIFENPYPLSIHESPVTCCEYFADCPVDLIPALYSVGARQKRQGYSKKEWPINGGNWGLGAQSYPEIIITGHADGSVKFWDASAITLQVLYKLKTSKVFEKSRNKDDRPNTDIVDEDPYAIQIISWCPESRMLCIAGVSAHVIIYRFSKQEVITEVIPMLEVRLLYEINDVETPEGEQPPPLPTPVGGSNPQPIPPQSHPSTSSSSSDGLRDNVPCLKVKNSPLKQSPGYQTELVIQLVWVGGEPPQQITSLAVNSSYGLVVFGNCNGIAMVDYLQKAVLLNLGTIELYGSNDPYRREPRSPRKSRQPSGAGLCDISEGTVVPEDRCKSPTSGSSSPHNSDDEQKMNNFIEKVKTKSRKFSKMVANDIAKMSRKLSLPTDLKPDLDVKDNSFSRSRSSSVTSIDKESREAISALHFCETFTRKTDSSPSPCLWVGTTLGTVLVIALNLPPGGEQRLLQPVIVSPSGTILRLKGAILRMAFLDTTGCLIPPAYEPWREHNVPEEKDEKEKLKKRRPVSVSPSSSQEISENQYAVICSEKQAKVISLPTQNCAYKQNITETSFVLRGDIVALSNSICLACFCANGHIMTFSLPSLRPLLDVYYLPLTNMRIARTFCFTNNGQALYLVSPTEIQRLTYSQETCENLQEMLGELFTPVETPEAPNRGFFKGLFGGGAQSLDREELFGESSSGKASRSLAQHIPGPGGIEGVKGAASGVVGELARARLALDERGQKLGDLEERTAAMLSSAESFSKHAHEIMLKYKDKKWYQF
UniProt P37837: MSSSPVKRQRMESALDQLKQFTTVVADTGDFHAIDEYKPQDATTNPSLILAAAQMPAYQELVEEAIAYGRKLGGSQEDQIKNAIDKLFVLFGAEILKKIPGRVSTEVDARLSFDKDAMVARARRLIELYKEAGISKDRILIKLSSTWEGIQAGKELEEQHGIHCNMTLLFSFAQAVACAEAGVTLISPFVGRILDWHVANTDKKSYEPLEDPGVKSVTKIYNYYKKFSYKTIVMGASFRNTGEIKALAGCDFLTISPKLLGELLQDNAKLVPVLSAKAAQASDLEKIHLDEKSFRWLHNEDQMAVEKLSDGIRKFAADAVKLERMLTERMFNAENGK
UniProt O15533, whole entry, looked up: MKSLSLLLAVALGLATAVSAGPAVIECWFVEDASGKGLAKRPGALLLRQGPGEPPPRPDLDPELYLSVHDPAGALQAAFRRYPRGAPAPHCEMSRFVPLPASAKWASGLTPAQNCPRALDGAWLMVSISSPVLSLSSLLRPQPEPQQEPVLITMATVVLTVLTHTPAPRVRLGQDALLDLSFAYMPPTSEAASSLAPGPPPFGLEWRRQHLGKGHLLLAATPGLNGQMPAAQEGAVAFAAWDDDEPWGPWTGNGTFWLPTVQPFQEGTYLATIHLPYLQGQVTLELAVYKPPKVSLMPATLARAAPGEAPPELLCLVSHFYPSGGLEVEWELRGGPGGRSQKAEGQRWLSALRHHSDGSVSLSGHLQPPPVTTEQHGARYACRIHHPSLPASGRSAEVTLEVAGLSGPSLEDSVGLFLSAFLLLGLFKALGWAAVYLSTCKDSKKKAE
UniProt Q8NHG7: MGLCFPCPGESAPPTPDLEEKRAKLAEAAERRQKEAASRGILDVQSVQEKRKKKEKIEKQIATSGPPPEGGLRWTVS

[2] = compound: CC1=C(C=C(C=C1)NC(=O)C2=CC(=CC=C2)N(C)C)NC(=O)C3=CC=C(C=C3)O
Method in brief: as §1

[3] = compound: CC1=CC=C(C=C1)SC2=C3C=C(SC3=CN=C2)C(=O)N
Method in brief: as §1

[4] = compound: CC1=NC(=CC=C1)C2=C(N=C(N2)C(C)(C)C)C3=CC4=NC=CN=C4C=C3
Method in brief: as §1

Nexturastat A = compound: CCCCN(Cc1ccc(C(=O)NO)cc1)C(=O)Nc1ccccc1 [Nexturastat A]
Method in brief: as §1

vemurafenib = compound: CCCS(=O)(=O)Nc1ccc(F)c(C(=O)c2c[nH]c3ncc(-c4ccc(Cl)cc4)cc23)c1F [vemurafenib]
Method in brief: as §1

[5] = compound: CCCS(=O)(=O)Nc1ccc(F)c(C(=O)c2c[nH]c3ncc(Cl)cc23)c1F
Method in brief: as §1

[6] = compound: CCCc1cc(C)[nH]c(=O)c1CNC(=O)c1cc(-c2ccnc(N3CCN(C)CC3)c2)cc2c1cnn2C(C)C
Method in brief: as §1

givinostat = compound: CCN(CC)Cc1ccc2cc(COC(=O)Nc3ccc(C(=O)NO)cc3)ccc2c1 [givinostat]
Method in brief: as §1

barasertib = compound: CCN(CCCOc1ccc2c(Nc3cc(CC(=O)Nc4cccc(F)c4)[nH]n3)ncnc2c1)CCOP(=O)(O)O [barasertib]
Method in brief: as §1

[7] = compound: CC[C@@H]1C(=O)N(C)c2cnc(Nc3ccc(C(=O)NC4CCN(C)CC4)cc3OC)nc2N1C1CCCC1
Method in brief: as §1

volasertib = compound: CC[C@@H]1C(=O)N(C)c2cnc(Nc3ccc(C(=O)N[C@H]4CC[C@H](N5CCN(CC6CC6)CC5)CC4)cc3OC)nc2N1C(C)C [volasertib]
Method in brief: as §1

[8] = compound: CC[C@H](C)N1C=C(C2=C(C=C(C=C21)C3=CN=C(C=C3)N4CCNCC4)C(=O)NCC5=C(C=C(NC5=O)C)C)C
Method in brief: as §1

epoxomicin = compound: CC[C@H](C)[C@@H](C(=O)N[C@@H]([C@@H](C)O)C(=O)N[C@@H](CC(C)C)C(=O)[C@]1(CO1)C)NC(=O)[C@H]([C@@H](C)CC)N(C)C(=O)C [epoxomicin]
Method in brief: as §1

[9] = compound: CCn1c(C(=O)N(C2CC2)C2CC2)cc2c3c(ncn3C)c(Nc3cc(C)n(C)n3)nc21
Method in brief: as §1

[10] = compound: CCn1cc(-c2ccnc3[nH]c(-c4cccc(CN(C)C)c4)cc23)c(-c2ccc(NC(=O)N(C)C)cc2)n1
Method in brief: as §1

[11] = compound: CN(C)CC(=O)Nc1ccc2[nH]c(=O)c3ccccc3c2c1
Method in brief: as §1

rosiglitazone = compound: CN(CCOC1=CC=C(C=C1)C[C@H]2C(=O)NC(=O)S2)C3=CC=CC=N3 (racemic) [rosiglitazone]
Method in brief: as §1

[12] = compound: CN1C2=C(C3=C1C(=O)N(N=C3)CC4=CC(=CC=C4)N)SC(=C2)S(=O)C
Method in brief: as §1

[13] = compound: CN1CCC(CNc2ccc3ncc(-c4cccc(OC(F)(F)F)c4)n3n2)CC1
Method in brief: as §1

Measured: log2 fold change

TBC1D13 (UniProt Q9NVG8)
inactive: [1] -0.027 | [2] 0.018 | [3] 0.009 | [4] -0.017 | Nexturastat A 0.02 | vemurafenib 0.004 | [5] 0.016 | [6] -0.028 | givinostat 0.014 | barasertib 0.013 | [7] 0.016 | volasertib -0.02 | [8] 0.006 | epoxomicin 0.014 | [9] 0.018 | [10] -0.029 | [11] 0.003 | rosiglitazone 0.008 | [12] -0.075 | [13] -0.08

TAF7 (UniProt Q15545)
inactive: [1] -0.052 | [2] 0.021 | [3] 0.008 | [4] -0.008 | Nexturastat A 0.049 | vemurafenib 0.041 | [5] 0.004 | [6] 0 | givinostat 0.037 | barasertib 0.014 | [7] -0.003 | volasertib -0.059 | [8] 0.027 | epoxomicin 0.142 | [9] 0.011 | [10] 0.019 | [11] -0.019 | rosiglitazone 0.005 | [12] 0.039 | [13] 0.036

STOML2 (UniProt Q9UJZ1)
inactive: [1] 0.023 | [2] -0.01 | [3] -0.04 | [4] 0.028 | Nexturastat A 0.027 | vemurafenib -0.008 | [5] -0.049 | [6] -0.01 | givinostat -0.006 | barasertib -0.002 | [7] 0.03 | volasertib 0.074 | [8] -0.038 | epoxomicin 0.004 | [9] -0.029 | [10] 0.015 | [11] -0.023 | rosiglitazone -0.019 | [12] -0.029 | [13] 0.082

TACO1 (UniProt Q9BSH4)
inactive: [1] 0.091 | [2] -0.156 | [3] 0.249 | [4] 0.056 | Nexturastat A -0.186 | vemurafenib 0.066 | [5] 0.225 | [6] 0.207 | givinostat 0.089 | barasertib 0.137 | [7] -0.293 | volasertib -0.041 | [8] -0.012 | epoxomicin 0.076 | [9] -0.013 | [10] -0.147 | [11] 0.078 | rosiglitazone 0.133 | [12] -0.012 | [13] -0.207

STMN1 (UniProt P16949)
inactive: [1] 0.006 | [2] 0.014 | [3] 0.005 | [4] 0.032 | Nexturastat A -0.063 | vemurafenib -0.016 | [5] -0.102 | [6] -0.054 | givinostat -0.03 | barasertib -0.015 | [7] -0.022 | volasertib 0.227 | [8] -0.039 | epoxomicin -0.007 | [9] 0.033 | [10] 0.044 | [11] -0.015 | rosiglitazone 0.021 | [12] -0.058 | [13] 0.046

SYAP1 (UniProt Q96A49)
inactive: [1] 0.005 | [2] 0.019 | [3] 0.021 | [4] 0.008 | Nexturastat A -0.064 | vemurafenib 0.014 | [5] 0.012 | [6] -0.051 | givinostat -0.028 | barasertib 0.02 | [7] -0.033 | volasertib -0.088 | [8] 0.035 | epoxomicin 0.05 | [9] -0.02 | [10] -0.008 | [11] -0.01 | rosiglitazone 0.039 | [12] -0.038 | [13] -0.076

SURF6 (UniProt O75683)
inactive: [1] -0.102 | [2] -0.067 | [3] -0.096 | [4] -0.215 | Nexturastat A 0.316 | vemurafenib -0.014 | [5] 0.036 | [6] 0.117 | givinostat 0.137 | barasertib -0.178 | [7] 0.256 | volasertib 0.484 | [8] -0.145 | epoxomicin -0.366 | [9] -0.052 | [10] 0.329 | [11] -0.054 | rosiglitazone -0.15 | [12] 0.326 | [13] 0.488

SYNGR2 (UniProt O43760)
inactive: [1] -0.025 | [2] -0.018 | [3] -0.033 | [4] -0.028 | Nexturastat A -0.048 | vemurafenib -0.138 | [5] -0.028 | [6] -0.067 | givinostat -0.06 | barasertib 0.002 | [7] 0.034 | volasertib 0.155 | [8] -0.085 | epoxomicin 0.02 | [9] 0.013 | [10] 0.014 | [11] 0.04 | rosiglitazone -0.005 | [12] 0.034 | [13] 0.039

STX10 (UniProt O60499)
inactive: [1] -0.087 | [2] 0.007 | [3] 0.051 | [4] 0.087 | Nexturastat A -0.019 | vemurafenib -0.038 | [5] 0.01 | [6] -0.005 | givinostat 0.012 | barasertib 0.272 | [7] -0.213 | volasertib -0.02 | [8] -0.055 | epoxomicin 0.017 | [9] -0.059 | [10] -0.062 | [11] 0.013 | rosiglitazone 0.035 | [12] -0.052 | [13] -0.093

TACC1 isoform 2 (UniProt O75410)
inactive: [1] -0.028 | [2] 0 | [3] 0.013 | [4] -0.003 | Nexturastat A -0.055 | vemurafenib 0.009 | [5] -0.026 | [6] -0.08 | givinostat -0.023 | barasertib 0.029 | [7] -0.025 | volasertib -0.082 | [8] -0.021 | epoxomicin 0.031 | [9] 0.014 | [10] -0.009 | [11] -0.008 | rosiglitazone 0.013 | [12] -0.053 | [13] -0.023

TAL1 (UniProt P17542)
inactive: [1] -0.029 | [2] 0.011 | [3] 0.019 | [4] 0.014 | Nexturastat A -0.094 | vemurafenib -0.011 | [5] -0.02 | [6] -0.025 | givinostat 0.021 | barasertib -0.049 | [7] 0.016 | volasertib 0.001 | [8] -0.047 | epoxomicin 0.031 | [9] 0.01 | [10] 0.025 | [11] 0.013 | rosiglitazone 0.018 | [12] -0.011 | [13] -0.024

4 neighbouring records already listed:
STOML2 (UniProt Q9UJZ1)
inactive: [1] 0.023 | [2] -0.01 | [3] -0.04 | [4] 0.028 | Nexturastat A 0.027 | vemurafenib -0.008 | [5] -0.049 | [6] -0.01 | givinostat -0.006 | barasertib -0.002 | [7] 0.03 | volasertib 0.074 | [8] -0.038 | epoxomicin 0.004 | [9] -0.029 | [10] 0.015 | [11] -0.023 | rosiglitazone -0.019 | [12] -0.029 | [13] 0.082

TACO1 (UniProt Q9BSH4)
inactive: [1] 0.091 | [2] -0.156 | [3] 0.249 | [4] 0.056 | Nexturastat A -0.186 | vemurafenib 0.066 | [5] 0.225 | [6] 0.207 | givinostat 0.089 | barasertib 0.137 | [7] -0.293 | volasertib -0.041 | [8] -0.012 | epoxomicin 0.076 | [9] -0.013 | [10] -0.147 | [11] 0.078 | rosiglitazone 0.133 | [12] -0.012 | [13] -0.207

STMN1 (UniProt P16949)
inactive: [1] 0.006 | [2] 0.014 | [3] 0.005 | [4] 0.032 | Nexturastat A -0.063 | vemurafenib -0.016 | [5] -0.102 | [6] -0.054 | givinostat -0.03 | barasertib -0.015 | [7] -0.022 | volasertib 0.227 | [8] -0.039 | epoxomicin -0.007 | [9] 0.033 | [10] 0.044 | [11] -0.015 | rosiglitazone 0.021 | [12] -0.058 | [13] 0.046

SYAP1 (UniProt Q96A49)
inactive: [1] 0.005 | [2] 0.019 | [3] 0.021 | [4] 0.008 | Nexturastat A -0.064 | vemurafenib 0.014 | [5] 0.012 | [6] -0.051 | givinostat -0.028 | barasertib 0.02 | [7] -0.033 | volasertib -0.088 | [8] 0.035 | epoxomicin 0.05 | [9] -0.02 | [10] -0.008 | [11] -0.01 | rosiglitazone 0.039 | [12] -0.038 | [13] -0.076

Remaining list, next part

STXBP5 (UniProt Q5T5C0)
inactive: [1] -0.021 | [2] -0.041 | [3] -0.007 | [4] -0.006 | Nexturastat A -0.002 | vemurafenib -0.038 | [5] 0.013 | [6] -0.006 | givinostat 0.022 | barasertib -0.004 | [7] -0.085 | [8] 0.021 | epoxomicin 0.151 | [10] 0.046 | [11] 0.033 | [12] 0.015 | [13] -0.006
active: volasertib -0.344

TALDO1 (UniProt P37837)
inactive: [1] 0.006 | [2] -0.006 | [3] 0.011 | [4] 0.041 | Nexturastat A -0.096 | vemurafenib 0.021 | [5] 0.038 | [6] -0.001 | givinostat -0.058 | barasertib 0.024 | [7] -0.047 | volasertib 0.033 | [8] 0.052 | epoxomicin 0.058 | [9] 0.012 | [10] -0.059 | [11] 0 | rosiglitazone 0.037 | [12] -0.062 | [13] -0.089

TAPBP isoform 3 (UniProt O15533)
inactive: [1] 0.129 | [2] -0.116 | [3] 0.034 | [4] 0.319 | Nexturastat A 0.013 | vemurafenib -0.035 | [5] 0.189 | [6] 0.153 | givinostat 0.051 | barasertib 0.041 | [7] -0.062 | volasertib -0.058 | [8] 0.046 | epoxomicin 0.119 | [9] -0.055 | [10] -0.186 | [11] 0.065 | rosiglitazone 0.016 | [13] -0.144

SVIP (UniProt Q8NHG7)
inactive: [1] 0.026 | [2] -0.029 | [3] 0 | [4] 0.001 | Nexturastat A -0.005 | vemurafenib 0.012 | [5] -0.096 | [6] -0.011 | givinostat -0.054 | barasertib -0.023 | [7] 0.124 | volasertib 0.021 | [8] -0.009 | epoxomicin -0.062 | [9] 0.062 | [10] -0.034 | [11] -0.067 | rosiglitazone -0.002 | [13] 0.03
